Experimental data taken from US20130115227A1.
No constants are given. Whether binding was seen depends on the method and setting. Some results given as binding are weak or reduced against the parent protein; the word gives no strength.

Protein sequences, listed by entry. Tags and fused reporters are not part of them. Residues count along the entry.
amyloid β (Aβ)-derived diffusible ligands (ADDLs) (P05067, residues 672-713): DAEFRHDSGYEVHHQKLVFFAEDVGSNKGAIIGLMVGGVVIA
monomer Aβ (Aβ1-40) (P05067, residues 672-711): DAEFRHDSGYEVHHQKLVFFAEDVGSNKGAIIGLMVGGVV

Experiments:
[1] = molecular target: amyloid β (Aβ)-derived diffusible ligands (ADDLs) (UniProt P05067); assay: three-pronged Aβ ELISA (FIG. 1)
[2] = molecular target: amyloid β (Aβ)-derived diffusible ligands (ADDLs) (UniProt P05067); assay: ELISA, bADDLs on a streptavidin-coated plate, 11 point antibody titration, anti-human IgG-Fc-HRP, A450
[3] = molecular target: fibrillar Aβ (UniProt P05067); assay: three-pronged Aβ ELISA, antibody as capture antibody at one concentration (not given), luminescence; background = No mAb
[4] = molecular target: monomer Aβ (three-pronged Aβ ELISA of FIG. 1) (UniProt P05067); assay: as above
[5] = molecular target: amyloid β (Aβ)-derived diffusible ligands (ADDLs) (UniProt P05067); assay: as above
[6] = molecular target: amyloid β (Aβ)-derived diffusible ligands (ADDLs) (UniProt P05067); assay: ELISA, eleven point titration on ADDLs and monomer Aβ1-40 (FIG. 2)
[7] = molecular target: amyloid β (Aβ)-derived diffusible ligands (ADDLs) (UniProt P05067); assay: cell-based blocking assay: antibody pre-incubated with bADDLs, then added to primary hippocampal neurons; bADDLs bound to the neurons detected with streptavidin-AP, luminescence
[8] = molecular target: amyloid β (Aβ)-derived diffusible ligands (ADDLs) (UniProt P05067); assay: ELISA, plate coated with ADDLs (50 pmol/well), 12 point antibody titration, anti-human IgG-alkaline phosphatase, luminescence
[9] = molecular target: amyloid β (Aβ)-derived diffusible ligands (ADDLs) (UniProt P05067); assay: three-pronged ELISA at a single concentration (FIG. 1)
[10] = molecular target: monomer Aβ (Aβ1-40) (UniProt P05067); assay: ELISA, monomer Aβ1-40 on a streptavidin-coated plate, 11 point antibody titration, anti-human IgG-Fc-HRP, A450
[11] = molecular target: amyloid β (Aβ)-derived diffusible ligands (ADDLs) (UniProt P05067); assay: immunocytochemistry of brain sections of hAPP transgenic mice dosed IV with 125I-labeled antibody (FIGS. 10C, 10D)
[12] = molecular target: amyloid β (Aβ)-derived diffusible ligands (ADDLs) (UniProt P05067); assay: phage/Fab ELISA on ADDLs, anti-M13-HRP detection

Measured: binding

B1: anti-ADDL antibody 19.3 (antibody, human IgG2, kappa, V domains shown)
VH: EVQLVESGGGLVQPGGSLRLSCAASGFTFSSFGMHWVRQAPGKGLEWVAYISRGSSTIYYADTVKGRFTISRDNAKNSLYLQMNSLRAEDTAVYYCARGITTALDYWGQGTLVTVSS
VL: DVVMTQSPLSLPVTPGEPASISCRSSQSIVHSNGNTYLEWYLQKPGQSPQLLIYKASNRFSGVPDRFSGSGSGTDFTLKISRVEAEDVGVYYCFQGSRLGPSFGQGTKLEIKR
binds: [1] | [2] | [3] | [4] | [5] | [6] | [7] | [8] | [9] | [10] | [11]

B2: Fab clone 19.3 (phage-displayed) (Fab, V domains shown)
VH: EVQLVESGGGLVQPGGSLRLSCAASGFTFSSFGMHWVRQAPGKGLEWVAYISRGSSTIYYADTVKGRFTISRDNAKNSLYLQMNSLRAEDTAVYYCARGITTALDYWGQGTLVTVSS
VL: DVVMTQSPLSLPVTPGEPASISCRSSQSIVHSNGNTYLEWYLQKPGQSPQLLIYKASNRFSGVPDRFSGSGSGTDFTLKISRVEAEDVGVYYCFQGSRLGPSFGQGTKLEIK
binds: [12]
